# In the supplement of paper PMC8728848:
# Some of the results follow.
# Columns and labels:
# Assay in all cases: glycan array binding signal (z-score within array); higher = stronger binding
# Details in all cases: glycan notation: IUPAC condensed, linker removed
# GlcNAc(b1-4)GlcNAc = target: GlcNAc(b1-4)GlcNAc
# Outline: (§1)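 Glycan array data came from 3228 arrays in the Consortium for Functional Glycomics database, and only arrays with an available protein sequence were kept. Glycan names were put into IUPAC-condensed notation, and columns mapping to the same glycan were averaged. The binding signal is a within-array Z-score, averaged across arrays of one protein sequence run at different concentrations or buffers and across linkers. A negative Z-score can be read as non-binding.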
# [1] = target: GlcNAc(b1-4)GlcNAc(b1-4)GlcNAc
# Outline: as §1
# [2] = target: GlcNAc(b1-4)GlcNAc(b1-4)GlcNAc(b1-4)GlcNAc(b1-4)GlcNAc
# Outline: as §1
# [3] = target: GlcNAc(b1-4)GlcNAc(b1-4)GlcNAc(b1-4)GlcNAc(b1-4)GlcNAc(b1-4)GlcNAc
# Outline: as §1
# [4] = target: GlcNAc(b1-4)[GlcNAc(b1-6)]GalNAc
# Outline: as §1
# [5] = target: GlcNAc(b1-6)Gal(b1-4)GlcNAc
# Outline: as §1
# GlcNAc(b1-6)GalNAc = target: GlcNAc(b1-6)GalNAc
# Outline: as §1
# GlcNAc3Prop(b1-4)GlcNAc = target: GlcNAc3Prop(b1-4)GlcNAc
# Outline: as §1
# [6] = target: GlcNAc6S(b1-3)Gal(b1-4)GlcNAc
# Outline: as §1
# Kdn(a2-3)Gal(b1-3)GalNAc = target: Kdn(a2-3)Gal(b1-3)GalNAc
# Outline: as §1
# Kdn(a2-3)Gal(b1-3)GlcNAc = target: Kdn(a2-3)Gal(b1-3)GlcNAc
# Outline: as §1
# Kdn(a2-3)Gal(b1-4)Glc = target: Kdn(a2-3)Gal(b1-4)Glc
# Outline: as §1
# Kdn(a2-3)Gal(b1-4)GlcNAc = target: Kdn(a2-3)Gal(b1-4)GlcNAc
# Outline: as §1
# [7] = target: Kdn(a2-3)Gal(b1-4)[Fuc(a1-3)]GlcNAc
# Outline: as §1
# Kdn(a2-6)Gal(b1-4)GlcNAc = target: Kdn(a2-6)Gal(b1-4)GlcNAc
# Outline: as §1
# [8] = target: Man(a1-2)Man(a1-2)Man(a1-3)Man
# Outline: as §1
# [9] = target: Man(a1-2)Man(a1-2)Man(a1-6)[Man(a1-3)]Man
# Outline: as §1
# Man(a1-2)Man(a1-3)Man = target: Man(a1-2)Man(a1-3)Man
# Outline: as §1
# [10] = target: Man(a1-2)Man(a1-3)[Man(a1-2)Man(a1-6)]Man
# Outline: as §1
# [11] = target: Man(a1-2)Man(a1-3)[Man(a1-2)Man(a1-6)]Man(a1-6)[Man(a1-2)Man(a1-2)Man(a1-3)]Man
# Outline: as §1
# [12] = target: Man(a1-2)Man(a1-3)[Man(a1-2)Man(a1-6)]Man(a1-6)[Man(a1-2)Man(a1-2)Man(a1-3)]Man(b1-4)GlcNAc(b1-4)GlcNAc
# Outline: as §1
# [13] = target: Man(a1-2)Man(a1-3)[Man(a1-6)]Man(a1-6)[Man(a1-2)Man(a1-3)]Man(b1-4)GlcNAc(b1-4)GlcNAc
# Outline: as §1
# [14] = target: Man(a1-2)Man(a1-6)[Man(a1-3)]Man(a1-6)[Man(a1-2)Man(a1-2)Man(a1-3)]Man
# Outline: as §1
# [15] = target: Man(a1-2)Man(a1-6)[Man(a1-3)]Man(a1-6)[Man(a1-2)Man(a1-2)Man(a1-3)]Man(b1-4)GlcNAc(b1-4)GlcNAc
# Outline: as §1
# Man(a1-3)[Man(a1-6)]Man = target: Man(a1-3)[Man(a1-6)]Man
# Outline: as §1
# [16] = target: Man(a1-3)[Man(a1-6)]Man(a1-6)[Man(a1-2)Man(a1-3)]Man(b1-4)GlcNAc(b1-4)GlcNAc
# Outline: as §1
# [17] = target: Man(a1-3)[Man(a1-6)]Man(a1-6)[Man(a1-3)]Man
# Outline: as §1
# [18] = target: Man(a1-3)[Man(a1-6)]Man(a1-6)[Man(a1-3)]Man(b1-4)GlcNAc(b1-4)GlcNAc
# Outline: as §1
# [19] = target: Man(a1-3)[Man(a1-6)]Man(b1-4)GlcNAc(b1-4)GlcNAc
# Outline: as §1
# [20] = target: Man(a1-3)[Man(a1-6)]Man(b1-4)GlcNAc(b1-4)[Fuc(a1-6)]GlcNAc
# Outline: as §1
binder,measurement,setting,value
KISKRILTGKK [NK11 (Sus scrofa)],glycan array binding signal (z-score),GlcNAc(b1-4)GlcNAc,-0.53
same,glycan array binding signal (z-score),[1],-0.597
same,glycan array binding signal (z-score),[2],0.061
same,glycan array binding signal (z-score),[3],-0.704
same,glycan array binding signal (z-score),[4],-0.483
same,glycan array binding signal (z-score),[5],0.185
same,glycan array binding signal (z-score),GlcNAc(b1-6)GalNAc,-0.38
same,glycan array binding signal (z-score),GlcNAc3Prop(b1-4)GlcNAc,0.745
same,glycan array binding signal (z-score),[6],0.058
same,glycan array binding signal (z-score),Kdn(a2-3)Gal(b1-3)GalNAc,0.538
same,glycan array binding signal (z-score),Kdn(a2-3)Gal(b1-3)GlcNAc,1.01
same,glycan array binding signal (z-score),Kdn(a2-3)Gal(b1-4)Glc,-0.786
same,glycan array binding signal (z-score),Kdn(a2-3)Gal(b1-4)GlcNAc,-0.4
same,glycan array binding signal (z-score),[7],-0.388
same,glycan array binding signal (z-score),Kdn(a2-6)Gal(b1-4)GlcNAc,0.628
same,glycan array binding signal (z-score),[8],-0.614
same,glycan array binding signal (z-score),[9],-0.346
same,glycan array binding signal (z-score),Man(a1-2)Man(a1-3)Man,-0.748
same,glycan array binding signal (z-score),[10],-0.627
same,glycan array binding signal (z-score),[11],0.147
same,glycan array binding signal (z-score),[12],-0.55
same,glycan array binding signal (z-score),[13],-0.763
same,glycan array binding signal (z-score),[14],-0.682
same,glycan array binding signal (z-score),[15],-0.141
same,glycan array binding signal (z-score),Man(a1-3)[Man(a1-6)]Man,0.105
same,glycan array binding signal (z-score),[16],0.459
same,glycan array binding signal (z-score),[17],-1.13
same,glycan array binding signal (z-score),[18],-0.51
same,glycan array binding signal (z-score),[19],-0.391
same,glycan array binding signal (z-score),[20],0.702

# Copied from the results shown (2 entries):
binder,measurement,setting,value
KISKRILTGKK [NK11 (Sus scrofa)],glycan array binding signal (z-score),[10],-0.627
same,glycan array binding signal (z-score),[11],0.147
